Values from PubChem BioAssay AID1671195 (Yale University, 2021)

Aim: 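Regulators of LDL receptor activity judged by labelled LDL uptake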 (primary screen)
Cell system: human Huh7 hepatoma cells
Reagents: siRNA pool against human genes, 18 nM
Duration: about 2 to 2.5 days of knockdown, then 8 h LDL uptake
Challenge: DiI-labelled LDL at 30 µg/ml for 8 h, in lipoprotein-deficient serum medium
Read-out: 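Fluorescent LDL signal imaged in cells, scaled to the plate median, robust z-score for each replicate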
Scale: robust z-score: higher = more LDL uptake after knockdown
Hit rule: 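Active when two or more replicates show a robust z-score above 2 or below -2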
Here is an unselected part of about 22,000 deposited reagents. About 1,510 of all reagents (6.9%) were called active. 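Active includes knockdowns raising or lowering LDL uptake; positive z-scores mean more uptake, negative mean less.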 A number with no mark means an inactive call. The numbers tell different reagents against one gene apart.

With knock-down of TMEM45A (transmembrane protein 45A), the record shows robust z-score, replicate 1 = 0.468; robust z-score, replicate 2 = -0.59; robust z-score, replicate 3 = 1.25.
SORCS2 (sortilin related VPS10 domain containing receptor 2) gave robust z-score, replicate 1 = -0.624; robust z-score, replicate 2 = -0.0753; robust z-score, replicate 3 = -0.658.
Against SIRT7 (sirtuin 7), the values are robust z-score, replicate 1 = -0.268; robust z-score, replicate 2 = -0.655; robust z-score, replicate 3 = -0.406.
With knock-down of EXOSC2 (exosome component 2), the screen gave robust z-score, replicate 1 = -1.51; robust z-score, replicate 2 = -1.32; robust z-score, replicate 3 = -1.69.
Silencing of WDR45B (WD repeat domain 45B) resulted in: robust z-score, replicate 1 = -0.944; robust z-score, replicate 2 = -0.999; robust z-score, replicate 3 = -0.753.
SH2D1B (SH2 domain containing 1B) gave robust z-score, replicate 1 = -0.0719; robust z-score, replicate 2 = -0.209; robust z-score, replicate 3 = 0.22.
For PTGES2 (prostaglandin E synthase 2), the entry reads robust z-score, replicate 1 = -0.124; robust z-score, replicate 2 = 0.678; robust z-score, replicate 3 = -0.698.
Depletion of TJP3 (tight junction protein 3) came out at: robust z-score, replicate 1 = -0.803; robust z-score, replicate 2 = -1.01; robust z-score, replicate 3 = -0.621.
After knock-down of RHBDL3 (rhomboid like 3), the screen gave robust z-score, replicate 1 = -1.44; robust z-score, replicate 2 = -1.57; robust z-score, replicate 3 = -1.74.
For CD46 (CD46 molecule) the deposit lists robust z-score, replicate 1 = -0.22; robust z-score, replicate 2 = 0.0533; robust z-score, replicate 3 = -0.106.
After knock-down of OTUB2 (OTU deubiquitinase, ubiquitin aldehyde binding 2), the record shows robust z-score, replicate 1 = -0.61; robust z-score, replicate 2 = -0.671; robust z-score, replicate 3 = -0.725.
Against MAP2K3 (mitogen-activated protein kinase kinase 3), the values are robust z-score, replicate 1 = -0.243; robust z-score, replicate 2 = -0.944; robust z-score, replicate 3 = -0.557.
Against RBM19 (RNA binding motif protein 19), the values are robust z-score, replicate 1 = -1.72; robust z-score, replicate 2 = -2.35; robust z-score, replicate 3 = -1.52.
After knock-down of NPC1 (NPC intracellular cholesterol transporter 1) #1, the record shows robust z-score, replicate 1 = 1.63 (active).
NPC1 (NPC intracellular cholesterol transporter 1) #2 scored robust z-score, replicate 1 = 0.321; robust z-score, replicate 2 = 0.457; robust z-score, replicate 3 = 0.141.
Depletion of GASAL1 (growth arrest associated lncRNA 1) gave: robust z-score, replicate 1 = 2.29 (active); robust z-score, replicate 2 = 1.6; robust z-score, replicate 3 = 2.26.

2 successive records from above, for reference:
OTUB2 (OTU deubiquitinase, ubiquitin aldehyde binding 2): robust z-score, replicate 1 = -0.61; robust z-score, replicate 2 = -0.671; robust z-score, replicate 3 = -0.725
MAP2K3 (mitogen-activated protein kinase kinase 3): robust z-score, replicate 1 = -0.243; robust z-score, replicate 2 = -0.944; robust z-score, replicate 3 = -0.557
